Results taken from publication PMC5437280.
These are yes or no findings as the source states them, for the method shown. For part of these data: In cells and extracts the contact can be indirect. Some entries that bind do so weakly or less than the wild type. Sequences can lack the tags named with a protein.

Amino acid sequences for entries named in this document (tags omitted).
UniProt P14713: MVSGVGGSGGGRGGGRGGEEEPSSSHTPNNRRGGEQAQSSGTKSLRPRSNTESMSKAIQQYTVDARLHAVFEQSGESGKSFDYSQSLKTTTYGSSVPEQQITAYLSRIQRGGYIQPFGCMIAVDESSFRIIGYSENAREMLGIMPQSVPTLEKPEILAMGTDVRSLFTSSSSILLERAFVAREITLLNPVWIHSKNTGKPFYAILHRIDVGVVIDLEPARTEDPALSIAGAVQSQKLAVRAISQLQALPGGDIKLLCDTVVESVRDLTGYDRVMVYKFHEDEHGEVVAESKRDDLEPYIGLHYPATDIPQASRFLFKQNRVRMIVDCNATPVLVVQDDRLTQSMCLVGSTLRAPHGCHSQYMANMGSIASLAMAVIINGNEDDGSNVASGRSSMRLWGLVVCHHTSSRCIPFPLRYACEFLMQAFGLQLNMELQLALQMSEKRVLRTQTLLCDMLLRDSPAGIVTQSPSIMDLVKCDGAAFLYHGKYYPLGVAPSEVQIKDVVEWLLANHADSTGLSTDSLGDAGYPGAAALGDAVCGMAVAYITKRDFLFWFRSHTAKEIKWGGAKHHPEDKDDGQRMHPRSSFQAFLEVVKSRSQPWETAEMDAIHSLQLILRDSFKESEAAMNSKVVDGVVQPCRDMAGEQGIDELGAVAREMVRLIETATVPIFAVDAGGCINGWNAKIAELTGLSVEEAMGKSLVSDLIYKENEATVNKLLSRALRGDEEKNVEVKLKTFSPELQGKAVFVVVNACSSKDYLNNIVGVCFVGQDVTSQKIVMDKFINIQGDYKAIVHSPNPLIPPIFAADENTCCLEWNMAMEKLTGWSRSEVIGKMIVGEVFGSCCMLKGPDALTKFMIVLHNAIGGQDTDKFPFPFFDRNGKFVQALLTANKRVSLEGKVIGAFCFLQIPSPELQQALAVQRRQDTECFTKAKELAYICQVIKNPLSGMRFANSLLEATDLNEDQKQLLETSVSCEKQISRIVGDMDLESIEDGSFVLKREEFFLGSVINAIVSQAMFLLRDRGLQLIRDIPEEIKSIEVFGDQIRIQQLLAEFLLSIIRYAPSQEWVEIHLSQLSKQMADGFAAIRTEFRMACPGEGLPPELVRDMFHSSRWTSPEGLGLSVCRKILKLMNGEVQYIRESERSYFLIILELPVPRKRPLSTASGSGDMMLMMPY

How the values were obtained:
[1] = target: T1, PIF3:MYC (in vitro synthesized) (Arabidopsis) (UniProt O80536); assay: co-IP; proteins synthesized in HeLa cell lysate; MYC-tagged bait captured with anti-MYC; phyB:FLAG prey irradiated with R light only (Pfr) before immunoprecipitation
T1 sequence: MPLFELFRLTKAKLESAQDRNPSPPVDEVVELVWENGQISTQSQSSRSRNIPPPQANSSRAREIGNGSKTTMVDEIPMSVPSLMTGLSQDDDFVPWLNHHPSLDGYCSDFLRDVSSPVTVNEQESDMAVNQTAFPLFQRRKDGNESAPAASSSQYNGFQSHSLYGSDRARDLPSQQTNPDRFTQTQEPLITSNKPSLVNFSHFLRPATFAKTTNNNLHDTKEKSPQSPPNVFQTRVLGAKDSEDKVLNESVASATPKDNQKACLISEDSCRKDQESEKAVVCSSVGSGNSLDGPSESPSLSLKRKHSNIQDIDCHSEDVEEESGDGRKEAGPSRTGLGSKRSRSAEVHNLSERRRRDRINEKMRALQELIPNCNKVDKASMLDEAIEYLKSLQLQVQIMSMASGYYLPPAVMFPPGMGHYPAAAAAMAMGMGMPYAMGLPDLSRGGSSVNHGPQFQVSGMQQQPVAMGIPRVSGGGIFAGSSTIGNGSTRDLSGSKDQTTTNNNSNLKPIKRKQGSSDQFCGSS

[2] = target: T1, PIF3:MYC (in vitro synthesized) (Arabidopsis); assay: co-IP; in vitro co-IP with phyB, PIF3 and PPK1 together (Supplementary Fig. 3d); bait not given
[3] = target: T2, GST:PIF3-WT:MYC (Arabidopsis) (UniProt O80536); assay: pull-down; in vitro pull-down with the PIF3 of the kinase assay as bait and phyB:FLAG (Pfr) as prey; blot with MYC and FLAG antibodies; both purified
T2 sequence: T1 sequence

binding [1]: binds | binding [2]: binds | binding [3]: binds
Substance: phyB:FLAG (from UniProt P14713 1-1172) (receptor)
